Construct, isoform or probe ends are uncertain for at least one entry.

Protein sequences, listed by entry. Tags and fused reporters are not part of them.
UniProt P61244, whole entry: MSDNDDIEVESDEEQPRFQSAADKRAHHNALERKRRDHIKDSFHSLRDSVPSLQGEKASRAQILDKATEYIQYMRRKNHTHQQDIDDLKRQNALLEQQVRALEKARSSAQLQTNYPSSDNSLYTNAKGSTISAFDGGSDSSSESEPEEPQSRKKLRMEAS

This data set has as its target Max(L) (Homo sapiens) (UniProt P61244). The data set can be described thus: EMSA. To be noted: homodimer DNA binding unaffected by compounds; data not shown, same oligo presumed; purified recombinant protein; protein details: His6 (pQE-10); label: 5'-HEX on one strand. In general terms: A gel shift assay detects complexes by their altered migration in electrophoresis.

On to “CACCCGGTCACGTGGCCTACAC (double strand) [E-box 22-mer duplex]”, for which the binding result is recorded as “binds”.

Source of the values: patent US20070203188.
